Taken from: PubChem BioAssay AID1259297 (Sanger Institute, 2017)
Assay: 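Kinases whose loss kills cells on their own or with targeted drugs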 (primary screen). System: human RCM1 colorectal cancer cell line. Reagents: siRNA pool against human genes. Treatment: separate arms: DMSO vehicle, or one anchor drug at a mild dose: BYL719 1 µM, cetuximab 5 µg/ml, trametinib 10 nM. Measured: 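Replicate-mean well viability as a share of non-targeting pool control, a robust z-score without drug, and synergy scores for BYL719, cetuximab and trametinib arms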. Reading the numbers: viability z-score, knock-down alone: higher = more viable cells than non-targeting controls; viability, knock-down alone (DMSO): higher = more viable cells; synergy score with trametinib: higher = stronger combined killing with trametinib; synergy score with BYL719: higher = stronger combined killing with BYL719; synergy score with cetuximab: higher = stronger combined killing with cetuximab. Rule for the call: 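Called essential if knock-down without drug gives a viability robust z-score under -3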. Meaning of the calls: active = essential when knocked down alone; inactive = no clear loss of viability alone.
In all, the deposit lists 794 reagents; shown is a part drawn at random. 13 of all reagents (1.6%) were called active. 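Calls reflect knock-down without drug only; drug synergy is judged separately, with scores above 0.15 counted as synergy.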 A number with no mark means an inactive call. No viability above 1 is reported: the scale is capped. Not stated in the record: the amount of reagent, the time to read-out.

gene symbol	viability z-score, knock-down alone	viability, knock-down alone (DMSO) (fraction of control)	synergy score with trametinib	synergy score with BYL719	synergy score with cetuximab
PNKP	-0.325	0.886	0.127	0.135	0.0391
PRKACG	0.0235	0.919	0.00929	-0.135	-0.138
PRKCA	0.846	0.995	0.159	-0.0355	-0.123
PASK	0.9	1	-0.0095	-0.0728	-0.118
CDKL1	0.702	0.982	0.0264	-0.0579	-0.109
DLG4	0.561	0.969	0.16	-0.0156	-0.146
MKNK2	-0.317	0.887	-0.06	-0.0666	-0.0613
CDC7	-1.09	0.815	0.0222	-0.0151	-0.0535
DGKA	-0.00874	0.916	0.129	0.122	0.172
MYLK2	-0.948	0.828	0.14	-0.0197	0.0495
NUP62	0.9	1	-0.0852	-0.0728	-0.118
NTRK1	-0.799	0.842	0.0933	0.122	0.126
PFKFB1	-0.743	0.847	0.0406	0.0335	-0.0282
MAP4K4	-0.589	0.862	0.00155	-0.0907	-0.195
PINK1	-2.09	0.723	0.0264	-0.0544	-0.18
GK2	-0.296	0.889	-0.0907	-0.0134	-0.204
ACO1	0.9	1	0.0115	0.104	0.0141
PNCK	0.00772	0.917	0.0825	-0.0749	-0.13
IRAK2	0.9	1	0.018	-0.0484	-0.118
MED12	0.9	1	-0.0527	-0.0269	-0.118

Part of the list above, limited to “synergy score with trametinib”.
PINK1	0.0264
GK2	-0.0907
